Results are given in words; binding and its absence hold for the method and conditions named.
Experiments:
ARC_(206-396) [1] = biological target: T1, ARC_(206-396) (human, UniProt Q7LC44 206-396); assay: SEC-SAXS
T1 sequence (looked up): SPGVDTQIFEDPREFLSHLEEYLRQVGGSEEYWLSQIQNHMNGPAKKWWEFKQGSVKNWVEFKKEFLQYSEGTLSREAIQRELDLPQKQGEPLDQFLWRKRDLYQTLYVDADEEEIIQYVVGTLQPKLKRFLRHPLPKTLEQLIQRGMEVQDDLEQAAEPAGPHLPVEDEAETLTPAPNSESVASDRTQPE

ARC_(206-396) [2] = biological target: T1, ARC_(206-396); assay: SEC-MALS
ARC_(206-361) [3] = biological target: T2, ARC_(206-361) (human, UniProt Q7LC44 206-361); assay: SEC-SAXS
T2 sequence (looked up): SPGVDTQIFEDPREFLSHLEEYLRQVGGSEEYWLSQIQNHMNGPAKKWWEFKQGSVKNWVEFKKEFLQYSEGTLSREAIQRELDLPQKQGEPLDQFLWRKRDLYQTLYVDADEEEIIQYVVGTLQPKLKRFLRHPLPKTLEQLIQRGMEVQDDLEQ

ARC_(206-361) [4] = biological target: T2, ARC_(206-361); assay: SEC-MALS
ARC_(207-277) [5] = biological target: T3, ARC_(207-277) (human, UniProt Q7LC44 207-277); assay: SEC-SAXS
T3 sequence (looked up): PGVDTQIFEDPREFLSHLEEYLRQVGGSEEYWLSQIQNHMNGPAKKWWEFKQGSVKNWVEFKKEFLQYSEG

ARC_(207-277) [6] = biological target: T3, ARC_(207-277); assay: SEC-MALS
ARC_(277-370) (human) [7] = biological target: ARC_(277-370) (human) (UniProt Q7LC44); assay: SEC-SAXS
ARC_(277-370) (human) [8] = biological target: ARC_(277-370) (human) (UniProt Q7LC44); assay: SEC-MALS
ARC_(131-396) [9] = biological target: T4, ARC_(131-396) (human, UniProt Q7LC44 131-396); assay: SEC-SAXS
T4 sequence (looked up): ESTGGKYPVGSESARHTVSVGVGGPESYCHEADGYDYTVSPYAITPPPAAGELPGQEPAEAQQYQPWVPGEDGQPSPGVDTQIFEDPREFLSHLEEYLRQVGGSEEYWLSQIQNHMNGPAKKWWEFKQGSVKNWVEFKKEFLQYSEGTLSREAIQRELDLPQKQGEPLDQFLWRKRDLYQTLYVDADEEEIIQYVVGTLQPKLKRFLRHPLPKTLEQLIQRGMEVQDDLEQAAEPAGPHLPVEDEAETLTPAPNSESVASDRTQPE

ARC_(131-396) [10] = biological target: T4, ARC_(131-396); assay: SEC-MALS
ARC_(170-396) [11] = biological target: T5, ARC_(170-396) (human, UniProt Q7LC44 170-396); assay: SEC-SAXS
T5 sequence (looked up): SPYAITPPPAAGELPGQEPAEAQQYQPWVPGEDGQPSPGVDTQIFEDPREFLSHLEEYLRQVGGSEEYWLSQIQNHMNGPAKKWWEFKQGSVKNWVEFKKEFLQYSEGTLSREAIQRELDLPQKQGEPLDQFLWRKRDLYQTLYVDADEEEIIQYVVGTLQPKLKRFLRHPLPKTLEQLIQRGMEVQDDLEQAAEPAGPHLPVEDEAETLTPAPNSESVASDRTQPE

ARC_(170-396) [12] = biological target: T5, ARC_(170-396); assay: SEC-MALS

B1: ARC_(206-396) (domain or fragment, UniProt Q7LC44 206-396)
chain: SPGVDTQIFEDPREFLSHLEEYLRQVGGSEEYWLSQIQNHMNGPAKKWWEFKQGSVKNWVEFKKEFLQYSEGTLSREAIQRELDLPQKQGEPLDQFLWRKRDLYQTLYVDADEEEIIQYVVGTLQPKLKRFLRHPLPKTLEQLIQRGMEVQDDLEQAAEPAGPHLPVEDEAETLTPAPNSESVASDRTQPE
ARC_(206-396) [1]
  binding: no binding
ARC_(206-396) [2]
  binding: no binding

B2: ARC_(206-361) (domain or fragment, UniProt Q7LC44 206-361)
chain: SPGVDTQIFEDPREFLSHLEEYLRQVGGSEEYWLSQIQNHMNGPAKKWWEFKQGSVKNWVEFKKEFLQYSEGTLSREAIQRELDLPQKQGEPLDQFLWRKRDLYQTLYVDADEEEIIQYVVGTLQPKLKRFLRHPLPKTLEQLIQRGMEVQDDLEQ
ARC_(206-361) [3]
  binding: no binding
ARC_(206-361) [4]
  binding: no binding

B3: ARC_(207-277) (domain or fragment, UniProt Q7LC44 207-277)
chain: PGVDTQIFEDPREFLSHLEEYLRQVGGSEEYWLSQIQNHMNGPAKKWWEFKQGSVKNWVEFKKEFLQYSEG
ARC_(207-277) [5]
  binding: no binding
ARC_(207-277) [6]
  binding: no binding

B4: ARC_(277-370) (domain or fragment, UniProt Q7LC44 277-370)
chain: GTLSREAIQRELDLPQKQGEPLDQFLWRKRDLYQTLYVDADEEEIIQYVVGTLQPKLKRFLRHPLPKTLEQLIQRGMEVQDDLEQAAEPAGPHL
ARC_(277-370) (human) [7]
  binding: no binding
ARC_(277-370) (human) [8]
  binding: no binding

B5: ARC_(131-396) (domain or fragment, UniProt Q7LC44 131-396)
chain: ESTGGKYPVGSESARHTVSVGVGGPESYCHEADGYDYTVSPYAITPPPAAGELPGQEPAEAQQYQPWVPGEDGQPSPGVDTQIFEDPREFLSHLEEYLRQVGGSEEYWLSQIQNHMNGPAKKWWEFKQGSVKNWVEFKKEFLQYSEGTLSREAIQRELDLPQKQGEPLDQFLWRKRDLYQTLYVDADEEEIIQYVVGTLQPKLKRFLRHPLPKTLEQLIQRGMEVQDDLEQAAEPAGPHLPVEDEAETLTPAPNSESVASDRTQPE
ARC_(131-396) [9]
  binding: no binding
ARC_(131-396) [10]
  binding: no binding

B6: ARC_(170-396) (domain or fragment, UniProt Q7LC44 170-396)
chain: SPYAITPPPAAGELPGQEPAEAQQYQPWVPGEDGQPSPGVDTQIFEDPREFLSHLEEYLRQVGGSEEYWLSQIQNHMNGPAKKWWEFKQGSVKNWVEFKKEFLQYSEGTLSREAIQRELDLPQKQGEPLDQFLWRKRDLYQTLYVDADEEEIIQYVVGTLQPKLKRFLRHPLPKTLEQLIQRGMEVQDDLEQAAEPAGPHLPVEDEAETLTPAPNSESVASDRTQPE
ARC_(170-396) [11]
  binding: no binding
ARC_(170-396) [12]
  binding: no binding

— doi:10.1101/332015 (bioRxiv, 2018)
